Data taken from PubChem BioAssay AID318 (DTP/NCI, 2004).
The list shows only some results of the screen, not a fair sample: it is rich in T/C values a quarter to a half above the control, in often repeated tests (any T/C) and in doses without a T/C. Further doses and runs are listed elsewhere. T/C gives the treated animals as a percentage of the vehicle group. Some entries give survivors of the animals treated and no T/C: the source holds a T/C of zero for them, seemingly a mark for toxic or unscored doses. Some doses without a T/C left all or most animals alive at the check, yet need not have been tolerated: the source hardly ever lists a survival T/C far under the control, and the zero likely stands for such cases as well. Survivors were counted at the toxicity check, usually on the fifth day, unless a day is given; later deaths do not show. Schedule codes are those of the source, taken here to give the interval after Q, in days (D) or hours (H), and the number of doses after X. Some entries were tested several times; the results are listed from low to high. For survival time, this PubChem deposit counts one and a half times the control or more as active, and values a quarter to a half above the control carry no call in these data; other NCI protocols may use other cut-offs. Some T/C values are followed by the survivors on the day toxicity was checked, most often the fifth; where none is given, no animal had died by that day.

Tested on: BDF1 mice, P815 leukemia ip, survival T/C
Assay: NCI In Vivo Anticancer Drug Screen. Data for tumor model P815 Mast Cell Leukemia (Ascitic) (intraperitoneal) in B6D2F1 (BDF1) mice
Conditions: T/C endpoint: survival time, mean or median, higher T/C = longer survival
Protocol: The antitumor activity of compounds was measured in mice bearing transplantable tumors. Survival or tumor size were measured and the results are expressed as the measurement made in the treated group (T) divided by the measurement made in the vehicle treated control group (C). The tumor model used in this assay is P815 Mast Cell Leukemia (Ascitic) (intraperitoneal) in B6D2F1 (BDF1) mice

[1] = dose: 8.0 mg/kg/injection, schedule: Q01DX010 (ip), vehicle: saline
[2] = dose: 16.0 mg/kg/injection, schedule: Q01DX010 (ip), vehicle: saline
[3] = dose: 0.5 mg/kg/injection, schedule: Q01DX010 (ip), vehicle: other
[4] = dose: 4.0 mg/kg/injection, schedule: Q01DX010 (ip), vehicle: other
[5] = dose: 6.0 mg/kg/injection, schedule: Q01DX015 (ip), vehicle: carboxymethylcellulose (CMC)

CCN(CC)CCNc1ccc(C)c2sc3ccccc3c(=O)c12
survivor count (dose: 100.0 mg/kg/injection, schedule: Q01DX010 (ip), vehicle: saline): 5 of 6 and 6 of 6
survivor count (dose: 200.0 mg/kg/injection, schedule: Q01DX010 (ip), vehicle: saline): 5 of 6 and 6 of 6

CCCCNc1ncnc2c1cnn2C
survivor count (dose: 125.0 mg/kg/injection, schedule: Q01DX010 (ip), vehicle: saline): 6 of 6
survivor count (dose: 250.0 mg/kg/injection, schedule: Q01DX010 (ip), vehicle: saline): 0 of 6

CS(=O)(=O)OCCN(CCOS(C)(=O)=O)c1ccc(N=O)cc1
T/C (dose: 0.5 mg/kg/injection, schedule: Q01DX010 (ip), vehicle: saline): 144 % of control
T/C (dose: 2.0 mg/kg/injection, schedule: Q01DX010 (ip), vehicle: saline): 133 % of control
survivor count (dose: 4.0 mg/kg/injection, schedule: Q01DX010 (ip), vehicle: saline): 0 of 6
survivor count [1]: 6 of 6
survivor count [2]: 0 of 6

O=C(Nc1ccc(C2=NCCN2)cc1)c1cccc(C(=O)Nc2ccc(C3=NCCN3)cc2)c1
T/C [1]: 125 % of control
T/C [2]: 126 and 141 % of control

Nc1cc(C(=O)Nc2ccc(C3=NCCN3)cc2)cc(C(=O)Nc2ccc(C3=NCCN3)cc2)c1
survivor count (dose: 128.0 mg/kg/injection, schedule: Q01DX010 (ip), vehicle: saline): 2 of 6

O=C(Nc1ccc(C2=NCCCN2)cc1)c1ccc(C(=O)Nc2ccc(C3=NCCCN3)cc2)cc1
T/C [3]: 100, 105, 108 % of control
survivor count [3]: 6 of 6
T/C (dose: 1.0 mg/kg/injection, schedule: Q01DX010 (ip), vehicle: other): 113, 117, 118 [5 of 6 alive], 142 % of control
T/C (dose: 2.0 mg/kg/injection, schedule: Q01DX010 (ip), vehicle: other): 169 [5 of 6 alive], 173 [5 of 6 alive], 180, 207 % of control
T/C [4]: 90 % of control [4 of 6 alive]
survivor count [4]: 6 of 6
survivor count (dose: 8.0 mg/kg/injection, schedule: Q01DX010 (ip), vehicle: other): 5 of 6 and 6 of 6

Nc1nc(F)nc2c1ncn2C1OC(CO)C(O)C1O (stereo unspecified)
survivor count (dose: 3.0 mg/kg/injection, schedule: Q01DX015 (ip), vehicle: saline): 10 of 10
survivor count (dose: 6.0 mg/kg/injection, schedule: Q01DX015 (ip), vehicle: saline): 8 of 10

COc1ccc(CSc2ncnc3nc[nH]c23)cc1
survivor count (dose: 125.0 mg/kg/injection, schedule: Q01DX015 (ip), vehicle: carboxymethylcellulose (CMC)): 10 of 10
survivor count (dose: 250.0 mg/kg/injection, schedule: Q01DX015 (ip), vehicle: carboxymethylcellulose (CMC)): 10 of 10
survivor count (dose: 500.0 mg/kg/injection, schedule: Q01DX015 (ip), vehicle: carboxymethylcellulose (CMC)): 8 of 10

OCC1OC(n2cnc3c(Cl)ncnc32)C(O)C1O (stereo unspecified)
survivor count (dose: 500.0 mg/kg/injection, schedule: Q01DX010 (ip), vehicle: saline): 6 of 6

N[C@@H](Cc1ccc(N(CCCl)CCCl)cc1)C(=O)O
survivor count (dose: 4.0 mg/kg/injection, schedule: Q01DX015 (ip), vehicle: carboxymethylcellulose (CMC)): 10 of 10
T/C [5]: 135 % of control
survivor count [5]: 10 of 10
survivor count (dose: 8.0 mg/kg/injection, schedule: Q01DX015 (ip), vehicle: carboxymethylcellulose (CMC)): 10 of 10
survivor count (dose: 12.0 mg/kg/injection, schedule: Q01DX015 (ip), vehicle: carboxymethylcellulose (CMC)): 10 of 10

COc1cc([C@@H]2c3cc4c(cc3[C@H](O)[C@H]3COC(=O)[C@@H]23)OCO4)cc(OC)c1OC
survivor count (dose: 80.0 mg/kg/injection, schedule: Q01DX015 (ip), vehicle: carboxymethylcellulose (CMC)): 10 of 10
